No constants are given. Whether binding was seen depends on the method and setting. In cells and extracts the contact can be indirect. Some results given as binding are weak or reduced against the parent protein; the word gives no strength.
Molecular target: HA/Zbtb7b (UniProt Q64321)
Assay: co-IP; Hepa1c1c7 cells co-transfected with the indicated plasmids for 48 h, with MG-132; lysates (500-800 ug) incubated overnight at 4 °C with EZview Red ANTI-FLAG M2 Affinity Gel and EZview Red Anti-HA Affinity Gel; beads washed seven to eight times with cold RIPA buffer; immunoblotting

By UniProt entry, the sequences of proteins in these tests, tags left out.
UniProt Q64321: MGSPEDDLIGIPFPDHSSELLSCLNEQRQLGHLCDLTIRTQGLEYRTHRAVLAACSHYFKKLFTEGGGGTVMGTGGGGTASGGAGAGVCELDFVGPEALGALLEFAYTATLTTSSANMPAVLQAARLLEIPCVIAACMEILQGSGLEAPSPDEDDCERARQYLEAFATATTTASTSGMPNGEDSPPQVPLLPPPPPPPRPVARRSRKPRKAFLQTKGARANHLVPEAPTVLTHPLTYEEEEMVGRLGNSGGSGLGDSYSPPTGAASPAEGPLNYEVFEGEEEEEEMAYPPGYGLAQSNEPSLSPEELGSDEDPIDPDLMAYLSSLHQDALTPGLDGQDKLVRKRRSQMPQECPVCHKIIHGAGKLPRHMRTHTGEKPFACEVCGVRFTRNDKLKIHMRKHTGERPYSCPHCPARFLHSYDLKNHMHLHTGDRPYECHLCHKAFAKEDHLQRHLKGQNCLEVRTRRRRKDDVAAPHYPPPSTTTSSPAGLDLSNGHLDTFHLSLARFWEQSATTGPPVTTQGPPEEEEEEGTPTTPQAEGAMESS
UniProt E0CYQ0: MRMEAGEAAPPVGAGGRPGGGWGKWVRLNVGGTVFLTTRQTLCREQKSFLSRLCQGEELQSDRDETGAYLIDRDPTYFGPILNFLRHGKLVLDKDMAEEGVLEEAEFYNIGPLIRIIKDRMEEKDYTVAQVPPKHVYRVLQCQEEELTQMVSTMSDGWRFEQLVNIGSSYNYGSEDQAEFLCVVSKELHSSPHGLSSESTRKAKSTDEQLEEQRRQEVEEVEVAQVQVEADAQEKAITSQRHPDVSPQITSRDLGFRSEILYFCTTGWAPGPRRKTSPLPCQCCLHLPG

- binding: binds
Substance: Kctd17/Flag (from UniProt E0CYQ0 1-289)

— publication PMC12411619
